Some of the results follow.

Amino acid sequences for entries named in this document (tags omitted). A change or cut given only in a name is not applied to a line headed by its entry.
UniProt Q96PZ0: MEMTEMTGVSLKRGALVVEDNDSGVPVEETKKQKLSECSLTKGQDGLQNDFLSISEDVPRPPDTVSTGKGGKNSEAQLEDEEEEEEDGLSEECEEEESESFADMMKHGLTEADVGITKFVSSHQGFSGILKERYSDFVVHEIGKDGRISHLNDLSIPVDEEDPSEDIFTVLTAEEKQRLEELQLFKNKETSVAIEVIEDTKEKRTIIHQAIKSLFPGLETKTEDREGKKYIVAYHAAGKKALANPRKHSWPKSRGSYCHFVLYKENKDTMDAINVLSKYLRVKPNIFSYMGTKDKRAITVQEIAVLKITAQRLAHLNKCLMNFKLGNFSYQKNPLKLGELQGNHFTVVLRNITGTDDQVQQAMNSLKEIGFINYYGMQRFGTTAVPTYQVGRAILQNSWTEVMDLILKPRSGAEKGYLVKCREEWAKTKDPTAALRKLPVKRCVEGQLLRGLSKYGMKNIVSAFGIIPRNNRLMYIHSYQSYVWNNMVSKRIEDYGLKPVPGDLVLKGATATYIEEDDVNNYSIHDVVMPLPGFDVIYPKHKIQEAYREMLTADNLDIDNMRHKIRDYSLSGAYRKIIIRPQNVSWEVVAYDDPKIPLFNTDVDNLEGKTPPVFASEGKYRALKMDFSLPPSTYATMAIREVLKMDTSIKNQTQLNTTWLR
UniProt P20742, whole entry, looked up: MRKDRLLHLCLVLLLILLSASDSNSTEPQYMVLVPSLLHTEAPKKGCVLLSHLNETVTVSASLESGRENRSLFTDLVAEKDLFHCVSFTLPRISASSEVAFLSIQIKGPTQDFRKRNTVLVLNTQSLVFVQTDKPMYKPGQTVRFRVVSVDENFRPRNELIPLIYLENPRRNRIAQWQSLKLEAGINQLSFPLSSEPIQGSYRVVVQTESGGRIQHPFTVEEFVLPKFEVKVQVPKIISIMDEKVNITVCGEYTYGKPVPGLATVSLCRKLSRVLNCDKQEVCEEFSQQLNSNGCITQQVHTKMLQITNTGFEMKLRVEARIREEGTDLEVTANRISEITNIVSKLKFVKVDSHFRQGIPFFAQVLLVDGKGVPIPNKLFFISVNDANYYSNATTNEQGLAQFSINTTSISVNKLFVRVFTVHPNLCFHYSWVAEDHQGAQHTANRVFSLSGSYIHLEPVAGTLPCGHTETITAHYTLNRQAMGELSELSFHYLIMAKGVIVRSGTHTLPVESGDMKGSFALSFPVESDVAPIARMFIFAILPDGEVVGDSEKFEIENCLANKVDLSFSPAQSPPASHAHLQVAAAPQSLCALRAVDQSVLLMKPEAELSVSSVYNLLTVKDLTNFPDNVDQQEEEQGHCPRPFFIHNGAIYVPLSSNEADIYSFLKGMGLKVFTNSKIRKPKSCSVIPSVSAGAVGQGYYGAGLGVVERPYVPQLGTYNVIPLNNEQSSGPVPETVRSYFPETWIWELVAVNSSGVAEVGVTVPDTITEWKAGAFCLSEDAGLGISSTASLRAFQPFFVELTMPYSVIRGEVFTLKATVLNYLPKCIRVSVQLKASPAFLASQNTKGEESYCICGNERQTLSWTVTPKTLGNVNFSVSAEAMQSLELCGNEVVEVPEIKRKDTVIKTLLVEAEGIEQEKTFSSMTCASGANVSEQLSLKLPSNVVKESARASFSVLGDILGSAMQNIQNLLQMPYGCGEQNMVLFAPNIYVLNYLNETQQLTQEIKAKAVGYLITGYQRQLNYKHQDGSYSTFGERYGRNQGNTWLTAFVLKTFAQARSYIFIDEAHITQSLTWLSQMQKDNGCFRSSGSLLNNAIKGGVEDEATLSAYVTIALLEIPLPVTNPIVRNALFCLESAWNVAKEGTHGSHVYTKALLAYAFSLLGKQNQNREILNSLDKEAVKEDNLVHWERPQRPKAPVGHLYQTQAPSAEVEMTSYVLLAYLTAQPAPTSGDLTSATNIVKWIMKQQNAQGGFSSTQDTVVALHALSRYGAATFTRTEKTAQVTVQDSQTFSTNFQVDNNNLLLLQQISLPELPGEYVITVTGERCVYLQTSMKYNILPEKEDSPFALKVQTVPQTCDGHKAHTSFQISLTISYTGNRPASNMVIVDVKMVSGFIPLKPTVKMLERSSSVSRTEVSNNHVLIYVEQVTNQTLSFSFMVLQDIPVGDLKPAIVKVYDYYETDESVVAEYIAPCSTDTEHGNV
UniProt Q9NRG1: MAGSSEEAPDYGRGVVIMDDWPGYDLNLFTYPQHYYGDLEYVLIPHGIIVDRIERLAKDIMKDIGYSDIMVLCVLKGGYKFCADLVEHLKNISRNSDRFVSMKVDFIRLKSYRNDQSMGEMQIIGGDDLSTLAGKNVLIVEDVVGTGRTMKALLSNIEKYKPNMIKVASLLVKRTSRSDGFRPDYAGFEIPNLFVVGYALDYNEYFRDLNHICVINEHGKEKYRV
UniProt Q8TB72: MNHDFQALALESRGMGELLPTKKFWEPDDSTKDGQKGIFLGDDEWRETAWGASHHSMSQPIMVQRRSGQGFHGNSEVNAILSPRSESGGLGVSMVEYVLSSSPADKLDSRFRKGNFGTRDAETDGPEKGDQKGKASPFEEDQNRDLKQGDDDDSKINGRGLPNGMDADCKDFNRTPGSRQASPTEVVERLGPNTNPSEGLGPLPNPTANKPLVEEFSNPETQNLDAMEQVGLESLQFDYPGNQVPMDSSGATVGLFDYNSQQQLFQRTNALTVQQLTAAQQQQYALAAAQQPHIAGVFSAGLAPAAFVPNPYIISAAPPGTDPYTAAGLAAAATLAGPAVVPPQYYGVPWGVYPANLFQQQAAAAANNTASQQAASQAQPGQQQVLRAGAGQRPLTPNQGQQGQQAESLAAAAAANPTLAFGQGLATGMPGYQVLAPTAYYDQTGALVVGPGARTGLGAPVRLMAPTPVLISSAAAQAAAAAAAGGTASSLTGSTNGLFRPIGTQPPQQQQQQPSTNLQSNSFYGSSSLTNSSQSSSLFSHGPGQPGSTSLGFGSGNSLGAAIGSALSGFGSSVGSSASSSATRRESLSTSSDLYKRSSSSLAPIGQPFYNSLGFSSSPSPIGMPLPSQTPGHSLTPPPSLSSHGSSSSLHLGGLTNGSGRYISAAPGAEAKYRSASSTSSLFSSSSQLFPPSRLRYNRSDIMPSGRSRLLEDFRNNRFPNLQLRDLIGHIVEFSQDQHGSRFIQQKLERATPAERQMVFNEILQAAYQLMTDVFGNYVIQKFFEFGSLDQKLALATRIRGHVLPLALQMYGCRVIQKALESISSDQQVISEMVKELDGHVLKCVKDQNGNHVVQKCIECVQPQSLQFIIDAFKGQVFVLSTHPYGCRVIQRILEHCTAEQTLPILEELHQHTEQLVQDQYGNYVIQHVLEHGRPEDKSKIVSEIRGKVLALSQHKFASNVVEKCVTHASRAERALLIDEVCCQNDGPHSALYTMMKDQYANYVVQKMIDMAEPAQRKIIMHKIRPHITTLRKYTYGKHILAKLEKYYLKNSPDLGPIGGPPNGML
UniProt Q3MIT2: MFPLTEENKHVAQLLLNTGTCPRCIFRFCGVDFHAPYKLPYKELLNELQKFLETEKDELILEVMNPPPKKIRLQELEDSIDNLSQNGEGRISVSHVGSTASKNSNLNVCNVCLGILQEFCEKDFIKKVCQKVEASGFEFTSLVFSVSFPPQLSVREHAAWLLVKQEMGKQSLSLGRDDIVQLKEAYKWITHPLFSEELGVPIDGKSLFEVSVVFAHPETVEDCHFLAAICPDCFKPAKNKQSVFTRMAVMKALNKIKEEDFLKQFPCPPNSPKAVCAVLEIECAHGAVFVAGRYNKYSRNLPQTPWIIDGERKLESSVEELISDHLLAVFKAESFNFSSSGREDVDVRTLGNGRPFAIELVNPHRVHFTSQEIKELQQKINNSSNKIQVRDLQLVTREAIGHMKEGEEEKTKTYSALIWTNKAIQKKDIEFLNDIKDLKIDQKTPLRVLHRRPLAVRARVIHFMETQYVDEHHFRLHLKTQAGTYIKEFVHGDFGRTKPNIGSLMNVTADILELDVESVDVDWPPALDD
UniProt Q9ULZ3, whole entry, looked up: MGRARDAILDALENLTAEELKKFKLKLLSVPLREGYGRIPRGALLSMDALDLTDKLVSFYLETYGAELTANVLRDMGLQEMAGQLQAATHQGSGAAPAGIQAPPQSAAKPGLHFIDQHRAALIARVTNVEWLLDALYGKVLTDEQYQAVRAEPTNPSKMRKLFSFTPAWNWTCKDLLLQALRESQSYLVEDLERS
UniProt O14818: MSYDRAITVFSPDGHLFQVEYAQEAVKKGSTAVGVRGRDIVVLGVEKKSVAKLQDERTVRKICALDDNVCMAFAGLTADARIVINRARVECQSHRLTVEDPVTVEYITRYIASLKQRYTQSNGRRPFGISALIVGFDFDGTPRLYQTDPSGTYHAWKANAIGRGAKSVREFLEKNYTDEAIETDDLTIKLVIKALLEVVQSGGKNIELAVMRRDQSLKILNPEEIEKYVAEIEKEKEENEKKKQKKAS
UniProt Q13308: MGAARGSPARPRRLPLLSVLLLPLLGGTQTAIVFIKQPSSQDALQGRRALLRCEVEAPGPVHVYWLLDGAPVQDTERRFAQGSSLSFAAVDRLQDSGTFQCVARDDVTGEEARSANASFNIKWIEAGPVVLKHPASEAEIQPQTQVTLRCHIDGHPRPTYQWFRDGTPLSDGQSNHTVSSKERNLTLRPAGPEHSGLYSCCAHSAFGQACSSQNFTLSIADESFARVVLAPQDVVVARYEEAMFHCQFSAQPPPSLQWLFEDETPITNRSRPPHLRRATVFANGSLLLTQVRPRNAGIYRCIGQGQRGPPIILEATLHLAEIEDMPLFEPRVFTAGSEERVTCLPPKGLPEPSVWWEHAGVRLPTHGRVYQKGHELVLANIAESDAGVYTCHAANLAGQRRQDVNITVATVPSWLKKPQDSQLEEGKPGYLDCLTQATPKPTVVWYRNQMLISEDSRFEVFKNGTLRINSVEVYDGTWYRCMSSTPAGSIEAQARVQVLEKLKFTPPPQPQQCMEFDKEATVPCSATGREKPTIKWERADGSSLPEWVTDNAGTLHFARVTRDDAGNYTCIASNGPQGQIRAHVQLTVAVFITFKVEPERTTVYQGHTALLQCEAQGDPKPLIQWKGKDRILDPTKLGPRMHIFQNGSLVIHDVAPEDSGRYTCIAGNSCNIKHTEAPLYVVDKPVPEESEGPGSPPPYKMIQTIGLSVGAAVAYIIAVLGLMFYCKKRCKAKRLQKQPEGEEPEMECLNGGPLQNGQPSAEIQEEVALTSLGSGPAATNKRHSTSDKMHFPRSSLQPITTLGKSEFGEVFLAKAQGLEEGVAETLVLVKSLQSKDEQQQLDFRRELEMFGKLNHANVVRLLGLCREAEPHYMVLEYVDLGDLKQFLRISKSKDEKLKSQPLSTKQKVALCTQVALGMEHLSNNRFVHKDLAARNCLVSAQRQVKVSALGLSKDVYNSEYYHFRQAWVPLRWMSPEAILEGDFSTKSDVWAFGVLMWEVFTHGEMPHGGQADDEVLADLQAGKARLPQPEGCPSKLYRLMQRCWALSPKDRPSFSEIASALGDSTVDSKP
UniProt P49023, whole entry, looked up: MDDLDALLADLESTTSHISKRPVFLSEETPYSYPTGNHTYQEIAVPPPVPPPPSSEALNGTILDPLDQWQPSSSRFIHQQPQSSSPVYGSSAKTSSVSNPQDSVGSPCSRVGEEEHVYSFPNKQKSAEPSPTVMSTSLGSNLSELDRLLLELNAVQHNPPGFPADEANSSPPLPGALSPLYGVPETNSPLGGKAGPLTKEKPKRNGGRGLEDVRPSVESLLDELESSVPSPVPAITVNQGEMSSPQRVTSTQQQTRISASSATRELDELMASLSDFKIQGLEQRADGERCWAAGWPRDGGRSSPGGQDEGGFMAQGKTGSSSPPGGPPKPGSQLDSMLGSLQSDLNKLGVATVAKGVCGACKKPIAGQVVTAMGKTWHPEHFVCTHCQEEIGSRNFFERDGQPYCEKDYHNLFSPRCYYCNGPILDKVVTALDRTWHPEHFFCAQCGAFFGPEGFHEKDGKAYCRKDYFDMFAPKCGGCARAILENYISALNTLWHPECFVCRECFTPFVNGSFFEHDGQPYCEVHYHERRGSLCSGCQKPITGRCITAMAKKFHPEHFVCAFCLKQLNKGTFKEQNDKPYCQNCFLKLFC
UniProt P07602: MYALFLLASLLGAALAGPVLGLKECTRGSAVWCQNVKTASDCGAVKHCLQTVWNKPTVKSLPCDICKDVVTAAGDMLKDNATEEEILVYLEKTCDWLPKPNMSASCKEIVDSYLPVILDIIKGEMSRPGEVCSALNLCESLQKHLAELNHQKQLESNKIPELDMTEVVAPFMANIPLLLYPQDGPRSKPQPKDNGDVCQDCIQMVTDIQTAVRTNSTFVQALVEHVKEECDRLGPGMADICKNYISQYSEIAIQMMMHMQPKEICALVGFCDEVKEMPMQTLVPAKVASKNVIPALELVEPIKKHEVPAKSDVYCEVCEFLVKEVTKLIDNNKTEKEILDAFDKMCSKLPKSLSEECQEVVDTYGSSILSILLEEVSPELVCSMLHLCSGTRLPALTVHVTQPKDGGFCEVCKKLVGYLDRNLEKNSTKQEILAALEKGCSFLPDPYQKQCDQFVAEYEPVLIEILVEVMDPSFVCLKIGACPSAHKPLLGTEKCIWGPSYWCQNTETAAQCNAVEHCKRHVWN

Compound in this experiment: C1=CC=C2C(=C1)C3=NNC4=CC=CC(=C43)C2=O
The experiment in a line: log2 fold change, soluble protein after heating vs DMSO (PISA); higher = thermal stabilisation; K562 cells, 10 uM, 30 min; active = over 0.2 and 3.5 SD of the protein, either way, in both replicates (recomputed). The procedure, abridged: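 Soluble protein was quantified by TMTpro 16plex LC-MS/MS after channel sums were equalised. It was obtained as the supernatant after 21,000xg for 90 min from pooled aliquots of K562 cells (2×10^6 cells/mL, 10 μM compound, 30 min) heated for 3 min across 48°C-58°C and extracted in PBS with 0.5% NP-40 at 4°C. Thermal stability values are relative to control samples and come from duplicates. They are given as log2 fold changes.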
PXMP2 (UniProt Q9NR77): the log2 fold change is inactive: -0.008.
With PSPH (UniProt P78330) the figure was inactive: -0.006.
Turning to QTRT1 (UniProt Q9BXR0), the log2 fold change was inactive: -0.012.
With PUS7 isoform 2 (UniProt Q96PZ0) the figure was inactive: -0.022; with PZP (UniProt P20742), inactive: -0.039.
With QPCTL (UniProt Q9NXS2) the figure was inactive: 0.045.
Then PTMS (UniProt P20962), with inactive: 0.096.
For the target PWP2 (UniProt Q15269), the log2 fold change was inactive: -0.006.
In the case of PSMA8 (UniProt Q8TAA3), the log2 fold change was inactive: 0.007.
Then QDPR (UniProt P09417), with inactive: -0.067.
With PSME1 (UniProt Q06323) the figure was inactive: 0.032.
For PSME2 (UniProt Q9UL46), the log2 fold change is inactive: 0.009.
With PRTFDC1 (UniProt Q9NRG1) the figure was inactive: 0.037.
With PSMB1 (UniProt P20618) the figure was inactive: 0.009; with PTPRA (UniProt P18433), inactive: 0.006; with PSMD4 (UniProt P55036), inactive: 0.036.
With PUS7L (UniProt Q9H0K6) the figure was inactive: -0.026; with PSMD14 (UniProt O00487), inactive: 0.044.
PUM2 (UniProt Q8TB72): the log2 fold change was inactive: -0.061.
Consider PTPRC (UniProt P08575), for which the log2 fold change is inactive: -0.059.
With QTRT2 isoform 4 (UniProt Q9H974) the figure was inactive: 0.05; with PUS10 (UniProt Q3MIT2), inactive: 0.109.
PSMG4 isoform 2 (UniProt Q5JS54): the log2 fold change was inactive: -0.016.
Then PYCARD (UniProt Q9ULZ3), with inactive: -0.053; and PSMA7 (UniProt O14818), with inactive: 0.018; and PTDSS2 (UniProt Q9BVG9), with inactive: -0.032.
For QSOX2 (UniProt Q6ZRP7), the log2 fold change is inactive: -0.051.
Turning to PTK7 isoform 6 (UniProt Q13308), the log2 fold change is inactive: -0.038.
Regarding PYM1 (UniProt Q9BRP8), the log2 fold change is inactive: -0.049.
Turning to PSMA1 isoform 2 (UniProt P25786), the log2 fold change is inactive: -0.008.
On to PSMA5 (UniProt P28066), for which the log2 fold change is inactive: 0.009.
For PTCD3 (UniProt Q96EY7), the log2 fold change is inactive: 0.072.
For the target PXN (UniProt P49023), the log2 fold change was inactive: -0.038.
With PSAP isoform 3 (UniProt P07602) the figure was inactive: -0.012.
